Test results: publication doi:10.1101/611533
These are yes or no findings as the source states them, for the method shown. For some of these results: In cells and extracts the contact can be indirect. Some results given as binding are weak or reduced against the parent protein; the word gives no strength. Where a sequence is shown, tags or fusion partners need not be part of it.

T1: GI fused to a Venus (YFP) fragment for BiFC (Arabidopsis thaliana) (UniProt Q9SQI2)
T1 sequence: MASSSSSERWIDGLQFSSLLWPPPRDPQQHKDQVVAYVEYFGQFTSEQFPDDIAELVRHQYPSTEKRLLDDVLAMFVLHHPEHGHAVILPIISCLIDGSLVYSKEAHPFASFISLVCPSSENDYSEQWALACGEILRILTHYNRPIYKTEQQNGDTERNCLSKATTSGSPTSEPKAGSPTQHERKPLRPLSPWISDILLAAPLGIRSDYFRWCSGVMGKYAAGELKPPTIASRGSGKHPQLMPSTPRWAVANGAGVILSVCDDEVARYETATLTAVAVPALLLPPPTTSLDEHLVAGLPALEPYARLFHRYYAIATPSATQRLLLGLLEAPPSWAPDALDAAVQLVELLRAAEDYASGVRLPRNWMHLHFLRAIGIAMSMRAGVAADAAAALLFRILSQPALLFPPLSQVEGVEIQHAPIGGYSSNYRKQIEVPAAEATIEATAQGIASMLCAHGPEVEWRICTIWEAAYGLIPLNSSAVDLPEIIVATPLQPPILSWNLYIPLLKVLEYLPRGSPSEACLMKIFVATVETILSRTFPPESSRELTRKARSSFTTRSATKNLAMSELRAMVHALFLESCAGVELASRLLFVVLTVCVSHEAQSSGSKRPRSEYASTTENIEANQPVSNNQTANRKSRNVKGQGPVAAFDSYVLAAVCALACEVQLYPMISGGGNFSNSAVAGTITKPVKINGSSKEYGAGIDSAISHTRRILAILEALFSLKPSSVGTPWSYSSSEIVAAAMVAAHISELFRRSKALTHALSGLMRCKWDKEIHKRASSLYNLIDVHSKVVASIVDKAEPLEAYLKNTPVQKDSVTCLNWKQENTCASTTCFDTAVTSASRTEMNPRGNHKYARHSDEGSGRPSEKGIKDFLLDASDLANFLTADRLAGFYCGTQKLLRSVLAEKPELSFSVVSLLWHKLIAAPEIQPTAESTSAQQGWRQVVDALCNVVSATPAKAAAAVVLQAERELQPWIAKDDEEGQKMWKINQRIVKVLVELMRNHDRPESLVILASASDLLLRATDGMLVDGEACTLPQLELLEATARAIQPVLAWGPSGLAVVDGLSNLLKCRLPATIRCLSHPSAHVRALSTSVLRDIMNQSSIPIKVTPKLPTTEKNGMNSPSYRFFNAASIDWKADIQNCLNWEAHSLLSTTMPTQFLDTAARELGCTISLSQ

T2: GIGANTEA (GI), full length, yeast two-hybrid fusion (Arabidopsis thaliana) (UniProt Q9SQI2)
T2 sequence: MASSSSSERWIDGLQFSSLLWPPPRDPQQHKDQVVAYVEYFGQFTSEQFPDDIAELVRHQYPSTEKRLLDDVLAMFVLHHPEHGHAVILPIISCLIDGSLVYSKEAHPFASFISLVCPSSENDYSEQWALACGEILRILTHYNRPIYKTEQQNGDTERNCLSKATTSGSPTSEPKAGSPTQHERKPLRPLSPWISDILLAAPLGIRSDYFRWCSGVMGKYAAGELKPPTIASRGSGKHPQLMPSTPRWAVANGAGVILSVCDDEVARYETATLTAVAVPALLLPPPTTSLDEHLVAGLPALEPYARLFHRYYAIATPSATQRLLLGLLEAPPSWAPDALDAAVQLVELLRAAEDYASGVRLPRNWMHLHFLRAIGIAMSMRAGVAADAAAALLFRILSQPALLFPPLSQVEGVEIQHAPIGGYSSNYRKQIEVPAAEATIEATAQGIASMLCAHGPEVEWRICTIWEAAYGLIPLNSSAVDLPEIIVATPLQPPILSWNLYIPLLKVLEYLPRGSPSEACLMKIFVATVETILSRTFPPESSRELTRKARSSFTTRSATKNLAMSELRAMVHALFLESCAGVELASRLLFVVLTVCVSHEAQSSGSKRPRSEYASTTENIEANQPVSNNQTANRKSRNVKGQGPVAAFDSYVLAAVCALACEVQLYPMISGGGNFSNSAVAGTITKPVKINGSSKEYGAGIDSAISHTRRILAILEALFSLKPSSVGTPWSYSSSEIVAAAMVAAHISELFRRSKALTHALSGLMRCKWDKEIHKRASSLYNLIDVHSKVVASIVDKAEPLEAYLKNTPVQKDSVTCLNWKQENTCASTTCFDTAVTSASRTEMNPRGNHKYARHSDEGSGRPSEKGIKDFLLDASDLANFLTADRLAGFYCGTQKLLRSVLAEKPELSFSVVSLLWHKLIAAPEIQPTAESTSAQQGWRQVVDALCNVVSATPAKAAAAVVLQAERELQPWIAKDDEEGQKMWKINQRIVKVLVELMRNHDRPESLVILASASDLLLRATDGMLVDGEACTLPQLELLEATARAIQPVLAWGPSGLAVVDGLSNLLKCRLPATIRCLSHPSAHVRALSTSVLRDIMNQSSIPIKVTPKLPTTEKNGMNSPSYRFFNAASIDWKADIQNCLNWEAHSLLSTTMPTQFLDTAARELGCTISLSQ


Legend:
[1] = biological target: T1, GI fused to a Venus (YFP) fragment for BiFC (Arabidopsis thaliana); assay: split reporter
[2] = biological target: T2, GIGANTEA (GI), full length, yeast two-hybrid fusion (Arabidopsis thaliana); assay: two-hybrid

binding [1]	binding [2]	Binder
binds		UBP12 fused to a Venus (YFP) fragment for BiFC (enzyme, UniProt Q9FPT1 1-1116) MTMMTPPPVDQPEDEEMLVPNSDLVDGPAQPMEVTQPETAASTVENQPAEDPPTLKFTWTIPNFSRQNTRKHYSDVFVVGGYKWRILIFPKGNNVDHLSMYLDVSDAASLPYGWSRYAQFSLAVVNQIHTRYTVRKETQHQFNARESDWGFTSFMPLSELYDPSRGYLVNDTVLVEAEVAVRKVLDYWSYDSKKETGFVGLKNQGATCYMNSLLQTLYHIPYFRKAVYHMPTTENDAPTASIPLALQSLFYKLQYNDTSVATKELTKSFGWDTYDSFMQHDVQELNRVLCEKLEDKMKGTVVEGTIQQLFEGHHMNYIECINVDFKSTRKESFYDLQLDVKGCKDVYASFDKYVEVERLEGDNKYHAEGHGLQDAKKGVLFIDFPPVLQLQLKRFEYDFMRDTMVKINDRYEFPLELDLDREDGKYLSPDADRSVRNLYTLHSVLVHSGGVHGGHYYAFIRPTLSDQWYKFDDERVTKEDLKRALEEQYGGEEELPQTNPGFNNNPPFKFTKYSNAYMLVYIRESDKDKIICNVDEKDIAEHLRVRLKKEQEEKEDKRRYKAQAHLYTIIKVARDEDLKEQIGKDIYFDLVDHDKVRSFRIQKQTPFQQFKEEVAKEFGVPVQLQRFWIWAKRQNHTYRPNRPLTPQEELQPVGQIREASNKANTAELKLFLEVEHLDLRPIPPPEKSKEDILLFFKLYDPEKAVLSYAGRLMVKSSSKPMDITGKLNEMVGFAPDEEIELFEEIKFEPCVMCEHLDKKTSFRLCQIEDGDIICFQKPLVNKEIECLYPAVPSFLEYVQNRQLVRFRALEKPKEDEFVLELSKQHTYDDVVEKVAEKLGLDDPSKLRLTSHNCYSQQPKPQPIKYRGVDHLSDMLVHYNQTSDILYYEVLDIPLPELQGLKTLKVAFHHATKEEVVIHNIRLPKQSTVGDVINELKTKVELSHPDAELRLLEVFYHKIYKIFPSTERIENINDQYWTLRAEEIPEEEKNIGPNDRLILVYHFAKETGQNQQVQNFGEPFFLVIHEGETLEEIKNRIQKKLHVSDEDFAKWKFAFMSMGRPEYLQDTDVVYNRFQRRDVYGAFEQYLGLEHADTTPKRAYAANQNRHAYEKPVKIYN
	no binding	UBP13 protease domain fragment, yeast two-hybrid fusion (domain or fragment, UniProt Q84WU2 198-522) VGLKNQGATCYMNSLLQTLYHIPYFRKAVYHMPTTENDAPTASIPLALQSLFYKLQYNDTSVATKELTKSFGWDTYDSFMQHDVQELNRVLCEKLEDKMKGTVVEGTIQKLFEGHHMNYIECINVDYKSTRKESFYDLQLDVKGCKDVYASFDKYVEVERLEGDNKYHAEGHDLQDAKKGVLFIDFPPVLQLQLKRFEYDFMRDTMVKINDRYEFPLQLDLDREDGRYLSPDADKSVRNLYTLHSVLVHSGGVHGGHYYAFIRPTLSDQWYKFDDERVTKEDVKRALEEQYGGEEELPQNNPGFNNPPFKFTKYSNAYMLVYIRE
binds		UBP13 fused to a Venus (YFP) fragment for BiFC (enzyme, UniProt Q84WU2 1-1115) MTMMTPPPLDQQEDEEMLVPNPDLVEGPQPMEVAQTDPAATAVENPPPEDPPSLKFTWTIPMFTRLNTRKHYSDVFVVGGYKWRILIFPKGNNVDHLSMYLDVADAANLPYGWSRYSQFSLAVVNQVNNRYSIRKETQHQFNARESDWGFTSFMPLSELYEPTRGYLVNDTVLIEAEVAVRKVLDYWSYDSKKETGFVGLKNQGATCYMNSLLQTLYHIPYFRKAVYHMPTTENDAPTASIPLALQSLFYKLQYNDTSVATKELTKSFGWDTYDSFMQHDVQELNRVLCEKLEDKMKGTVVEGTIQKLFEGHHMNYIECINVDYKSTRKESFYDLQLDVKGCKDVYASFDKYVEVERLEGDNKYHAEGHDLQDAKKGVLFIDFPPVLQLQLKRFEYDFMRDTMVKINDRYEFPLQLDLDREDGRYLSPDADKSVRNLYTLHSVLVHSGGVHGGHYYAFIRPTLSDQWYKFDDERVTKEDVKRALEEQYGGEEELPQNNPGFNNPPFKFTKYSNAYMLVYIRESDKDKIICNVDEKDIAEHLRVRLKKEQEEKEDKRKYKAQAHLFTTIKVARDDDITEQIGKNIYFDLVDHEKVRSFRIQKQTPFQQFKEEVAKEFGVPVQLQRFWIWAKRQNHTYRPNRPLSPNEELQTVGQIREASNKANNAELKLFLEIERGPDDLPIPPPEKTSEDILLFFKLYDPENAVLRYVGRLMVKSSSKPMDIVGQLNKMAGFAPDEEIELFEEIKFEPCVMCEQIDKKTSFRLCQIEDGDIICYQKPLSIEESEFRYPDVPSFLEYVQNRELVRFRTLEKPKEDEFTMELSKLHTYDDVVERVAEKLGLDDPSKLRLTSHNCYSQQPKPQPIKYRGVDHLSDMLVHYNQTSDILYYEVLDIPLPELQGLKTLKVAFHSATKDEVIIHNIRLPKQSTVGDVINELKTKVELSHQDAELRLLEVFFHKIYKIFPSTERIENINDQYWTLRAEEIPEEEKNIGPNDRLIHVYHFTKEAGQNQQVQNFGEPFFLVIHEGETLEEIKTRIQKKLHVPDEDFAKWKFASFSMGRPDYLLDTDVVYNRFQRRDVYGAWEQYLGLEHIDNAPKRAYAANQNRHAYEKPVKIYN
	no binding	UBP12 protease domain fragment, yeast two-hybrid fusion (domain or fragment, UniProt Q9FPT1 199-524) VGLKNQGATCYMNSLLQTLYHIPYFRKAVYHMPTTENDAPTASIPLALQSLFYKLQYNDTSVATKELTKSFGWDTYDSFMQHDVQELNRVLCEKLEDKMKGTVVEGTIQQLFEGHHMNYIECINVDFKSTRKESFYDLQLDVKGCKDVYASFDKYVEVERLEGDNKYHAEGHGLQDAKKGVLFIDFPPVLQLQLKRFEYDFMRDTMVKINDRYEFPLELDLDREDGKYLSPDADRSVRNLYTLHSVLVHSGGVHGGHYYAFIRPTLSDQWYKFDDERVTKEDLKRALEEQYGGEEELPQTNPGFNNNPPFKFTKYSNAYMLVYIRE
